Drawing on the supplement of paper PMC11150407, this text covers cell viability for 101 compounds.

The term cell viability denotes a read-out of living cells in per cent, often relative to untreated cells.

About 45 (2%) of roughly 3,000 compounds showed an effect of 50% or more. The list shows a part of the results.

This assay has as its system MOLM1 and UCSD/AML1 (averaged). The experiment in a line: cell viability relative to DMSO control (POC); higher = less growth inhibition. As to conditions: 1 µM; 72 h. The method, then: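 Primary viability screen in the 3q26 EVI1-high AML cell lines MOLM1 and UCSD/AML1, compounds at 1 uM for 72 h. ATP CellTiter-Glo read-out given as percent viable over DMSO control (POC), averaged over duplicates. This mapping covers the TimTec NDL-3000 natural derivative library, whose compounds are identified by TimTec catalogue codes (ST...).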
As for `CCOc1cc(C(=O)Nc2c(C)cccc2C)cc(OCC)c1OCC`, the cell viability was 91.9%.

In the case of `COc1ccccc1/C=C/C(=O)c1ccc2c(c1)OCO2`, the cell viability turned out to be 101%.

As to `Cc1[nH]c2ccc(OCc3ccccc3)cc2c1CCNC(=O)COc1ccc(F)cc1F`, the cell viability worked out at 99.5%.

On to `CC12CCC(=O)C=C1CCC1C2CCC2(C)C1CC[C@@]21OCOC12COCO2` (stereo partly specified), for which the cell viability came to 94.6%.

`COc1ccc(C(=O)Nc2nc(CC(=O)O)cs2)cc1OC`: the cell viability came out at 87.1%.

With `O=C1CCc2cc(S(=O)(=O)N3CCc4ccccc4C3)ccc2N1`, the cell viability was 96.5%.

For the compound `Cc1[nH]c2ccccc2c1CCNC(=O)c1ccccc1F`, the cell viability amounted to 104%.

As for `Cn1c(SCC(=O)Nc2cccc(Br)c2)nc2c(=O)[nH]cnc21`, the cell viability was determined as 103%.

As to `CCOc1ccc(-c2nc(CSc3nc4c(=O)[nH]c(C)nc4n3C)c(C)o2)cc1OC`, the cell viability was determined as 100%.

Consider `COc1cc(C2C3CCCCC3(O)CCN2Cc2ccccc2Cl)cc(OC)c1OC` (stereo unspecified), for which the cell viability was 92.4%.

Regarding `Nc1c(C(=O)N2CCC[C@H]2C(=O)O)sc2nc(-c3ccc(F)cc3)cc(-c3ccccc3)c12`, the cell viability is 92.6%.

On to `CCOC(=O)CNC(=O)c1ccc(OC)cc1`, for which the cell viability is 105%.

In the case of `COc1cc(/C(C)=N/N=C2\NC(=O)C(CC(=O)O)S2)cc(OC)c1OC` (stereo unspecified), the cell viability came to 98.2%.

For `COc1cc(C(=O)N2CCN(c3cccc(C)c3C)CC2)cc(OC)c1OC`, the cell viability was found to be 12.5%.

`CC(C)C(Nc1ncnc2ccccc12)C(=O)O` (stereo unspecified): the cell viability worked out at 101%.

For the compound `COc1ccc2c(O)c([N+](=O)[O-])c(=O)oc2c1`, the cell viability stood at 105%.

Regarding `COc1cccc(OCCN=Cc2c(O)c(O)c(C(C)C)c3cc(C)c(-c4c(C)cc5c(C(C)C)c(O)c(O)c(C=NCCOc6cccc(OC)c6)c5c4O)c(O)c23)c1`, the cell viability turned out to be 106%.

As for `COc1cc(C(=O)CC2(O)C(=O)N(Cc3cccc4ccccc34)c3ccccc32)cc(OC)c1OC` (stereo unspecified), the cell viability was 106%.

On to `COc1ccc2c(c1)c(CC(=O)NCCOc1ccc(Cl)cc1)c(C)n2C(=O)c1ccc(Cl)cc1`, for which the cell viability was 87%.

`COCCOC(=O)c1c(C)n(CCOc2cccc(OC)c2)c2c1cc(O)c1ccccc12`: the cell viability is 99.9%.

`COc1cc(-c2nnc(NC(=O)c3cccs3)o2)cc(OC)c1OC`: the cell viability was 100%.

As to `CC(=O)NC(Cc1ccc(O)cc1)C(N)=O` (stereo unspecified), the cell viability was determined as 100%.

In the case of `CCOc1ccc2ccccc2c1/C=N/NC(=O)COc1cc(C)ccc1C(C)C`, the cell viability is 103%.

As for `COC(=O)CCC(C)C1CC=C2C3=CCC4CC(OC(=O)OC)CCC4(C)C3CC(=O)C21C` (stereo unspecified), the cell viability is 113%.

With `O=C(/C=C/c1cccc(Cl)c1)c1ccc(OC(=O)c2cccc([N+](=O)[O-])c2)cc1`, the cell viability was determined as 102%.

Take `Cc1ccc(-n2c(SCc3cc(C)ccc3C)nc3c(=O)[nH]cnc32)cc1`: the cell viability came out at 93.9%.

Take `COc1cc(NC(=O)CSc2nc3c(=O)[nH]cnc3n2-c2ccc(C)cc2)cc(OC)c1`: the cell viability was determined as 118%.

With `O=c1oc2ccc(Cl)cc2c(-c2cnn(-c3ccccc3)c2)c1-c1ccccc1`, the cell viability came to 80.7%.

For the compound `COc1ccc2c(c1)c(CC(=O)Nc1cc3oc4ccccc4c3cc1OC)c(C)n2C(=O)c1ccc(Cl)cc1`, the cell viability was found to be 103%.

On to `COc1cc(/C=N/NC(=O)c2nn(Cc3ccc(Br)cc3)cc2Br)cc(OC)c1OC`, for which the cell viability worked out at 106%.

In the case of `O=C(O)/C=C\C(=O)NCC(=O)O`, the cell viability is 91.8%.

`Cc1ccc2[nH]c(C)c(CCNS(=O)(=O)c3ccc4c(c3)OCCO4)c2c1`: the cell viability worked out at 99.4%.

For the compound `CCCCC(CC)COC(=O)/C=C/c1ccc(OC)cc1` (stereo unspecified), the cell viability came out at 98%.

`COC(=O)c1c(NC(=O)CN2CCC3(O)CCCCC3C2c2ccc(O)c(OC)c2)sc2c1CCCC2` (stereo unspecified): the cell viability worked out at 99.4%.

Turning to `O=C(Cn1c(=O)cc(C(=O)N2CCCC2)c2ccccc21)Nc1ccc(F)c(Cl)c1`, the cell viability turned out to be 95%.

Take `CCOc1cc(C(=O)Nc2ccc(OC)c(OC)c2)cc(OCC)c1OCC`: the cell viability is 93.4%.

Regarding `Cc1[nH]c2ccccc2c1CCNC(=O)c1ccccc1Br`, the cell viability was 93.6%.

In the case of `CCCNC(=O)c1c(NC(=O)c2ccc3c(c2)OCCO3)cnn1C`, the cell viability was found to be 94.6%.

With `Cc1ccc(-n2c(SCC(=O)Nc3ccc(F)cc3F)nc3c(=O)[nH]cnc32)cc1`, the cell viability was 108%.

Turning to `COc1cc2c(cc1OC)C1=NNC(O)(C(F)(F)C(F)(F)C(F)(F)F)N1C(C)(C)C2` (stereo unspecified), the cell viability was 97.2%.

With `Cc1ccc2oc(-c3ccccc3C)cc(=O)c2c1`, the cell viability came to 21.6%.

Consider `CCS(=O)(=O)Nc1cc(OC)c(OC)cc1Cc1nccc2cc(OC)c(OC)cc12`, for which the cell viability is 95.7%.

As for `CC1(c2ccccc2)CC(Nc2ccc(I)cc2C(=O)O)C(=O)O1` (stereo unspecified), the cell viability is 97.4%.

On to `CCN(CC)c1ccc(C2C3CCCCC3(O)CCN2CC(=O)Nc2ccc(OC)cc2)cc1` (stereo unspecified), for which the cell viability turned out to be 89.2%.

`CCOC(=O)c1cccc(NC(=O)COc2ccc3c(C)cc(=O)oc3c2)c1`: the cell viability worked out at 104%.

Take `O=C(O)C1CCCN1C(=O)OCc1ccccc1` (stereo unspecified): the cell viability was determined as 109%.

For `CCN(CC)C(=O)c1cc(=O)n(CC(=O)Nc2ccc(F)c(Cl)c2)c2ccccc12`, the cell viability was found to be 102%.

As to `COC(=O)c1ccccc1NC(=O)CSc1nc2c(=O)[nH]cnc2n1C`, the cell viability stood at 97.4%.

For `COc1cc(/C=N/NC(=O)CNc2n[nH]c(=O)[nH]c2=O)ccc1O`, the cell viability amounted to 94.7%.

In the case of `Cc1[nH]c2ccccc2c1CCNC(=O)c1c(Cl)cccc1Cl`, the cell viability turned out to be 94.7%.

As to `COC(=O)C1=C(N)Oc2c(oc(CO)cc2=O)C1c1ccccc1F` (stereo unspecified), the cell viability turned out to be 103%.

Consider `Cc1ccc(-n2c(SCc3cccc(Cl)c3)nc3c(=O)[nH]cnc32)cc1`, for which the cell viability is 114%.

On to `COc1ccc(C(=O)Nc2cccc(C(F)(F)F)c2)cc1OC`, for which the cell viability was 97.9%.

As for `N[C@@H](CSc1ccccc1)C(=O)O`, the cell viability was 97%.

Turning to `COC(=O)c1ccc(CSc2nnc(-c3cc(OC)c(OC)c(OC)c3)o2)cc1`, the cell viability came out at 103%.

With `Cc1ccc(-c2oc3ccccc3c(=O)c2OS(=O)(=O)c2ccc(C)cc2)cc1`, the cell viability was 106%.

`COc1cc(OC)cc(C(=O)c2ccc(C(=O)Nc3ccc(Br)c4cccnc34)cc2)c1`: the cell viability was 102%.

As to `CCn1cnc2cc(NC(=O)c3cc(OC)c(OC)c(OC)c3)ccc2c1=O`, the cell viability came to 97.8%.

For the compound `COc1ccc(-c2ccccc2)cc1`, the cell viability turned out to be 105%.

In the case of `CN1CCN(c2ccc(/C=C/c3[nH]c(=O)[nH]c(=O)c3[N+](=O)[O-])cc2[N+](=O)[O-])CC1`, the cell viability amounted to 93.2%.

For `O=C(CCNc1ccccc1)c1cc2ccccc2oc1=O`, the cell viability is 101%.

As to `CCOC(=O)CCC(=O)NNC(=O)Cc1ccc(Cl)cc1`, the cell viability was determined as 99.2%.

As to `Cc1ccc(-n2c(SCC(=O)Nc3ccc(Br)cc3F)nc3c(=O)[nH]cnc32)cc1`, the cell viability is 106%.

Regarding `COCCn1c(C)c(C(=O)OC)c2cc(O)c3ccccc3c21`, the cell viability was 90.6%.

Consider `COc1cc(OC)c2c(c1)C(=O)N(Cc1ccccc1)C(=O)C2=O`, for which the cell viability came out at 95.5%.

With `COc1cc(C2C(C#N)=C(N)Oc3n[nH]c(C(C)C)c32)cc2c1OCO2` (stereo unspecified), the cell viability amounted to 93.8%.

Regarding `COc1ccc2oc(=O)c(C(=O)NCCc3c(C)[nH]c4ccc(OC(F)(F)F)cc34)cc2c1`, the cell viability came to 98.8%.

Consider `COc1cc(C(=O)Sc2ccc(Cl)cc2)cc(OC)c1OC`, for which the cell viability amounted to 93.1%.

As to `CCc1cccc(NC(=O)CSc2nc3c(=O)[nH]cnc3n2CC)c1`, the cell viability came out at 95.1%.

As for `Cc1ccc2[nH]c(C)c(CCNC(=O)c3cc(F)c(F)cc3Cl)c2c1`, the cell viability worked out at 99.2%.

`O=C(O)C(Cc1c[nH]c2ccccc12)NCc1ccccc1F` (stereo unspecified): the cell viability was 101%.

Consider `CCOC(=O)c1ccccc1NC(=O)C(=O)Nc1ccccc1C(=O)OCC`, for which the cell viability came out at 97.1%.

For `COc1ccc(-c2cc(C(F)(F)F)nc(SC3CC(O)C4OCC3O4)n2)cc1OC` (stereo unspecified), the cell viability stood at 98.4%.

Consider `COc1cccc(-c2nc(CSc3nc4c(=O)[nH]cnc4n3-c3ccc(C)cc3)c(C)o2)c1OC`, for which the cell viability was 110%.

For `O=C(O)c1ccc(OCC[n+]2c(CCCc3[nH]c4ccccc4[n+]3CCOc3ccc(C(=O)O)cc3)[nH]c3ccccc32)cc1`, the cell viability stood at 104%.

Turning to `CC(=O)OC1CCC2(C)C(CCC3(C)C2C(=O)C=C2C4CC(C)(C(=O)OCC5CCCO5)CCC4(C)CCC23C)C1(C)C` (stereo unspecified), the cell viability is 85.9%.

`CC(C)(O)C#Cc1ccc2c3c(cccc13)C(=O)OC2=O`: the cell viability is 97.8%.

On to `COc1cc(OC)cc(C(=O)N2CCN(Cc3ccccc3)CC2)c1`, for which the cell viability turned out to be 99.7%.

`COc1cc(NC(=O)Cn2c(=O)cc(C(=O)N3CCCC3)c3ccccc32)cc(OC)c1`: the cell viability was 89.7%.

As for `COc1cc(OC)cc(C(=O)Nc2ccc3c(c2)COC3=O)c1`, the cell viability worked out at 95.3%.

Regarding `O=c1cc(-c2ccc(Cl)cc2)oc2c(Cl)cc(Cl)cc12`, the cell viability was 114%.

As for `O=C(Nc1ncnc2c1ncn2C1OC(COC(=O)c2ccccc2Br)C(OC(=O)c2ccccc2Br)C1OC(=O)c1ccccc1Br)c1ccccc1` (stereo unspecified), the cell viability was 90.4%.

Take `Cc1ccc(C(CC(=O)O)C2CCOC(C)(C)C2)cc1` (stereo unspecified): the cell viability worked out at 97.9%.

Take `COc1ccccc1C(=O)NCCc1c(C)[nH]c2c(C)ccc(F)c12`: the cell viability was found to be 95.5%.

With `COc1cc(/C=C/C(=O)c2ccc(C(=O)/C=C/c3cc(OC)c(OC)c(OC)c3)cc2)cc(OC)c1OC`, the cell viability stood at 106%.

As for `CCCCOC(=O)c1cc(=O)[nH]c(=O)[nH]1`, the cell viability amounted to 89.1%.

In the case of `CCOC(=O)/C(C#N)=C\c1ccc(OC)c(OC)c1`, the cell viability came to 95.7%.

On to `CN(C)c1ccc(C(=O)N2CCc3ccccc3C2)cc1`, for which the cell viability was determined as 96.5%.

Turning to `N[C@@H](Cc1ccccc1)C(=O)Nc1ccc2ccccc2c1`, the cell viability was determined as 100%.

Turning to `CC(=O)N/C(=C/c1ccccc1)C(=O)NCc1ccco1`, the cell viability is 105%.

For the compound `COc1ccc(C(=O)Nc2cnn(C(C)C)c2)cc1OC`, the cell viability turned out to be 107%.

On to `C=CCNC(=O)C(=O)NCCc1c[nH]c2ccccc12`, for which the cell viability was determined as 98.1%.

Regarding `Cc1cccc(NC(=O)CSc2nc3c(=O)[nH]cnc3n2C)c1`, the cell viability turned out to be 107%.

As to `CNCC(O)c1cccc(O)c1` (stereo unspecified), the cell viability came out at 107%.

For `O=c1c(-c2ccccc2)c(O)c2ccccc2n1-c1ccccc1`, the cell viability turned out to be 97.5%.

Take `COc1ccc(NCCC(=O)c2cc(OC)c(OC)c(OC)c2)cc1`: the cell viability turned out to be 81.1%.

In the case of `CC(=O)c1ccc(N/C=C2\C(=O)C(O)=C(C(C)C)c3cc(C)c(-c4c(C)cc5c(c4O)/C(=C/Nc4ccc(C(C)=O)cc4)C(=O)C(O)=C5C(C)C)c(O)c32)cc1`, the cell viability is 104%.

Regarding `Cn1c(=O)c2ccccc2n(CC(=O)N2CCc3ccccc3C2)c1=O`, the cell viability amounted to 107%.

Turning to `CC(=O)NCCOc1cccc2c1N(C(=O)c1ccc3c(c1)OCO3)CCC2`, the cell viability came out at 94.2%.

`FC(F)(F)c1cccc(Nc2ncnc3ccccc23)c1`: the cell viability worked out at 80.3%.

Regarding `CCCNC(=O)c1cc(=O)n(CC(=O)Nc2ccc3c(c2)OCCO3)c2ccccc12`, the cell viability is 98.8%.
